Laboratory results as given in PMC4521207.
Results are given in words; binding and its absence hold for the method and conditions named.

Protein sequences, listed by entry. Tags and fused reporters are not part of them. Residues count along the entry.
UniProt P07737, residues 2-140: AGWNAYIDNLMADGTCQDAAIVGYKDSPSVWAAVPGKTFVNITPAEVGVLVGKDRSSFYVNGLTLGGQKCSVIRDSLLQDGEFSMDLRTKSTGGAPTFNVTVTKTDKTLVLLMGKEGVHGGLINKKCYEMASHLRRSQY

Experiments:
[1] = target: Human profilin-1 (human) (UniProt P07737); experiment: dynamic light scattering; 0.8 mg mL^-1 profilin-1 in G-buffer containing 8 M urea, 25 °C; urea-unfolded protein; both purified
[2] = target: Human profilin-1 (human) (UniProt P07737); experiment: dynamic light scattering; 0.8 mg mL^-1 profilin-1 in G-buffer (20 mM Tris/HCl, 2 mM DTT, 0.1 mM CaCl2, 0.2 mM NaN3, pH 7.3), 25 °C; native protein; hydrodynamic diameter compared with those expected for monomer, dimer and tetramer; both purified
[3] = target: Human profilin-1 (human) (UniProt P07737); experiment: dynamic light scattering; 0.8 mg mL^-1 profilin-1 in 20 mM HCl pH 1.7, 25 °C; acid-unfolded protein; both purified

Measured: binding

Human profilin-1 (from UniProt P07737 2-140) (other; other documents disagree on this pair)
no binding (tested: 0.8 mg mL^-1): [1] | [2] | [3]
